Laboratory results from patent US12258321B1 (University of Jeddah, priority 2024, dated 2025).

System: MCF-7 cells
Experiment: MTT cytotoxicity test on MCF-7 breast cancer cells
Assay type: cell-based
Details: Homo sapiens, MCF7, 24 h, read-out: IC50, cytotoxic activity against MCF7 breast cancer cells
Procedure: The MCF-7 breast cancer cell lines were purchased from VACSERA Tissue Culture Unit (Giza, Egypt). MCF-7 cells were cultured in RPMI medium supplemented with 2 mM glutamine and 10% fetal bovine serum. Both cell cultures included […] streptomycin and 100 units/ml penicillin and were kept in a humidified atmosphere with 5% CO2 at 37° C.
As an indicator of cytotoxic activity, cell viability was determined using the MTT [(3-(4,5-dimethylthiazol-2-yl)-2,5-diphenyltetrazolium bromide] assay according to the instructions provided by the manufacturer. Briefly, MCF-7 cells were plated at 5×10^3 cells/well in 96-well plates. Cells were treated with test compounds or Staurosporine at 0.01, 0.1, 1.0, 10 and 100 M concentrations for 24 h. The plates were read at 570 nm. Denoted data are the means of the three experiments. IC50 values were calculated by nonlinear regression analysis using Graph Pad Prism version 5 for windows (Graph Pad Inc., CA, USA). All experiments were performed in triplicate. Data were given as mean±SD.

CN[C@@H]1C[C@H]2O[C@@](C)([C@@H]1OC)n1c3ccccc3c3c4c(c5c6ccccc6n2c5c31)C(=O)NC4 [Staurosporine, reference compound]
IC50: 5.69 µM
